These are yes or no findings as the source states them, for the method shown. Binding seen in cells or lysates may run through a third protein. Some binding calls cover weakened binding; strength is not graded here. Where a sequence is shown, tags or fusion partners need not be part of it.
T1: GST-CaRtg1 (C. albicans) (UniProt Q5APP3)
T1 sequence: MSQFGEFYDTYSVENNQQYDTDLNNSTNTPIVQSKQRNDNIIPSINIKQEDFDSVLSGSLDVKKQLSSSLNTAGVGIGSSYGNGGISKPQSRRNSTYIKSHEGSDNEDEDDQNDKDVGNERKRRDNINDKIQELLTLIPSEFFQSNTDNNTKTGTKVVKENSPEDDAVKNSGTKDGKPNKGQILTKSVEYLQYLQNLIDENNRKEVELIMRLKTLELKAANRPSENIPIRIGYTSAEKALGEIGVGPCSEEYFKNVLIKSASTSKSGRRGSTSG

Sequences of proteins named here, by UniProt entry; tags and fusion partners are left off.
UniProt A0A1D8PF20: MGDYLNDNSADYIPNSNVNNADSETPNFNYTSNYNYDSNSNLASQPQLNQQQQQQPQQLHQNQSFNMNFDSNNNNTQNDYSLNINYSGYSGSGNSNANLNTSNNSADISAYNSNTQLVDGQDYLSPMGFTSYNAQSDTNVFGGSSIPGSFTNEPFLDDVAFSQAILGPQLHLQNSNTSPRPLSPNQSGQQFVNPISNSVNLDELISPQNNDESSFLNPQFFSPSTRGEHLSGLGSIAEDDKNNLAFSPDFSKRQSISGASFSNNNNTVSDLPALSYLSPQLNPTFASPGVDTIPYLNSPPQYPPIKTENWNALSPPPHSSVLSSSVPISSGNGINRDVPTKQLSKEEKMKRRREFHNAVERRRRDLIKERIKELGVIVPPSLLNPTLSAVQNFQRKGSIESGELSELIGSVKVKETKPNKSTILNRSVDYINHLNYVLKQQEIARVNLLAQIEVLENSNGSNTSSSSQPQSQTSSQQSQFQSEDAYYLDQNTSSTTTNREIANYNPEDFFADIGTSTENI

T2: GST-ScRtg1 (S. cerevisiae) (UniProt P32607)
T2 sequence: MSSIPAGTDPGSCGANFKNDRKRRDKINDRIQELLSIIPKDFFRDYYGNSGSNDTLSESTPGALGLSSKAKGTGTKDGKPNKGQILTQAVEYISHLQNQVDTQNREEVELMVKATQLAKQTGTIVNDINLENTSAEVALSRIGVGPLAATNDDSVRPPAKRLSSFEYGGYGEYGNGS


Tests used:
GST-CaRtg1 (C. albicans) = target: T1, GST-CaRtg1 (C. albicans); assay: pull-down; GST-Rtg1 present in E. coli cell lysates immobilized onto glutathione Sepharose-4B beads; E. coli cell lysates containing MBP-Rtg3/RtgX added; after washing, beads analysed by SDS-PAGE and Coomassie Brilliant Blue staining; only the target purified
[1] = target: T2, GST-ScRtg1 (S. cerevisiae); assay: as above

binding (GST-CaRtg1 (C. albicans))	binding [1]	Molecule
binds		MBP-CaRtg3 (from UniProt A0A1D8PF20 1-520)
	binds	MBP-ScRtg3 (protein, UniProt P38165 1-486) MMNNNESEAENQRLLDELMNQTKVLQETLDFSLVTPTPHHNDDYKIHGSAYPGGETPAQQHEKLSYINTHNSNDNNNLMGSQARSNSQTPTASTIYEEAESQSSYLDDMFRTSQGGRPVTQNSISSIGQGPLRSSYSMAYDSPVDRAMNTPLQQQEGLKAELPHDFLFQHGTDDTMYNLTDDLSSSLSSSINSDMMTPNTYSSSFSYNPQSLGPASVSSTYSPKVRSPSSSFRAGSFLSSSFRHGSINTPRTRHTSISSNMTENIGPGSVPKILGGLTSDEKLRRKREFHNAVERRRRELIKQKIKELGQLVPPSLLNYDDLGKQIKPNKGIILDRTVEYLQYLAEILEIQARKKKALLAKIKELEEKKSSVAALSPFTNNHHASSGQNNSENSEERIIDIRSVPNALMNEQNSKAELHNWEPPLYDSVGNHNHAGTMESHPHTNIHEELKEFLSGDLIEAEDNAKLMFGDDNSNPADYLLEFGSG
